Values from PubChem BioAssay AID743454 (Peter MacCallum Cancer Centre, 2014).

- Screen: 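Knock-downs lowering viability or raising caspase 3/7 activity in vorinostat-treated resistant cells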 (primary screen)
- System: human HCT116-VR colon cancer cells, selected for vorinostat resistance
- Reagents: siRNA pool against human genes, 40 nM siRNA pool
- Duration: vorinostat for 24 h, read-out about 72 h after transfection
- Treatment: vorinostat at 2.5 µM final
- Detection: 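Cell viability by CellTiter-Fluor and caspase 3/7 activity by luminescence, each scaled to mock wells per plate, duplicates averaged, then robust z-scored over all plates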
- Direction: viability robust z-score: higher = more viable cells than screen typical; caspase robust z-score: higher = more caspase 3/7 activity than screen typical
- Call rule: 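Hits are knock-downs in viability class RV1/RV2 or caspase class CA1/CA2, excluding ones that killed cells in the no-drug cell-count arm; hits then retested with single siRNAs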
The whole screen tested about 18,000 reagents; this is an unselected part. 450 of all reagents (2.5%) were called active. 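Single biological run; no consistent viability z cut-off exists, so the class columns, not z-scores, define the calls.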 Unmarked entries are inactive.

Target gene | PubChem SID | viability hit class | caspase hit class | viability robust z-score | caspase robust z-score
IL2RB (interleukin 2 receptor subunit beta) | SID134312918 | no change | no change | 0.27 | -0.36
CENATAC (centrosomal AT-AC splicing factor) | SID134326830 | no change | no change | 1.14 | 0.04
SEL1L (SEL1L adaptor subunit of SYVN1 ubiquitin ligase) | SID134310653 | no change | no change | -0.23 | 3.58
SFXN3 (sideroflexin 3) | SID135623580 | no change | no change | -0.38 | -0.05
SNX25 (sorting nexin 25) | SID135622812 | no change | no change | 0.88 | -0.86
VKORC1 (vitamin K epoxide reductase complex subunit 1) | SID134310215 | no change | no change | -0.13 | 0.66
PHKB (phosphorylase kinase regulatory subunit beta) | SID134312707 | no change | no change | 0.74 | 1.6
PRELID3B (PRELI domain containing 3B) | SID152153828 | no change | no change | -0.23 | 2.6
HLA-G (major histocompatibility complex, class I, G) | SID152151638 | no change | no change | -4.3 | 2.34
DPCD (deleted in primary ciliary dyskinesia homolog (mouse)) | SID134326889 | no change | no change | -1.02 | 7.2
SRGAP1 (SLIT-ROBO Rho GTPase activating protein 1) | SID134326702 | no change | no change | 0.12 | 0.11
BRD2 (bromodomain containing 2) | SID135620911 | no change | no change | -0.66 | 3.16
SNAP91 (synaptosome associated protein 91) | SID152154955 | no change | no change | 1.26 | -1.23
CEACAM19 (CEA cell adhesion molecule 19) | SID134318006 | no change | no change | -0.19 | 3.91
ANKRD36B (ankyrin repeat domain 36B) | SID152152886 | no change | no change | -0.42 | -0.32
EML5 (EMAP like 5) | SID134323029 | no change | no change | 0.33 | -0.27
USP38 (ubiquitin specific peptidase 38) | SID134311507 | no change | no change | -1.41 | 1.55
CD59 (CD59 molecule (CD59 blood group)) | SID134310509 | no change | no change | 0.42 | 2.07
CNTN2 (contactin 2) | SID134316315 | no change | no change | -2.86 | 0.75
AURKAIP1 (aurora kinase A interacting protein 1) | SID134311802 | no change | no change | 0.86 | -0.81
PROK2 (prokineticin 2) | SID134324866 | no change | no change | 0.76 | -0.06
LINC00174 (long independently transcribed non-coding RNA 174) | SID152149382 | no change | no change | -0.38 | 1.8
PDE3A (phosphodiesterase 3A) | SID135621424 | no change | no change | -0.4 | -0.58
FGFBP1 (fibroblast growth factor binding protein 1) | SID134323668 | no change | no change | 0.34 | 0.29
NDUFS5 (NADH:ubiquinone oxidoreductase subunit S5) | SID134323579 | no change | no change | 0.2 | -0.43
H2AC8 (H2A clustered histone 8) | SID134317380 | no change | no change | 0.2 | -0.34
TRIM72 (tripartite motif containing 72) | SID152152340 | no change | no change | -1.19 | 2.98
PSENEN (presenilin enhancer, gamma-secretase subunit) | SID152156610 | no change | no change | -0.08 | -0.7
RWDD2B (RWD domain containing 2B) | SID134318056 | no change | no change | 1.86 | -0.46
CD163L1 (CD163 molecule like 1) | SID152156482 | no change | no change | 0.45 | -0.38
NECTIN1 (nectin cell adhesion molecule 1) | SID135620807 | no change | no change | 0.07 | -0.62
CDH24 (cadherin 24) | SID134322811 | no change | no change | -0.73 | 0.49

A stretch of the results above, for reference:
Target gene | PubChem SID | viability hit class | caspase hit class | viability robust z-score | caspase robust z-score
CD59 (CD59 molecule (CD59 blood group)) | SID134310509 | no change | no change | 0.42 | 2.07
CNTN2 (contactin 2) | SID134316315 | no change | no change | -2.86 | 0.75
AURKAIP1 (aurora kinase A interacting protein 1) | SID134311802 | no change | no change | 0.86 | -0.81
PROK2 (prokineticin 2) | SID134324866 | no change | no change | 0.76 | -0.06
LINC00174 (long independently transcribed non-coding RNA 174) | SID152149382 | no change | no change | -0.38 | 1.8
PDE3A (phosphodiesterase 3A) | SID135621424 | no change | no change | -0.4 | -0.58
FGFBP1 (fibroblast growth factor binding protein 1) | SID134323668 | no change | no change | 0.34 | 0.29
NDUFS5 (NADH:ubiquinone oxidoreductase subunit S5) | SID134323579 | no change | no change | 0.2 | -0.43
H2AC8 (H2A clustered histone 8) | SID134317380 | no change | no change | 0.2 | -0.34
TRIM72 (tripartite motif containing 72) | SID152152340 | no change | no change | -1.19 | 2.98
PSENEN (presenilin enhancer, gamma-secretase subunit) | SID152156610 | no change | no change | -0.08 | -0.7

The listing continues.
Target gene | PubChem SID | viability hit class | caspase hit class | viability robust z-score | caspase robust z-score
PRDX3 (peroxiredoxin 3) | SID134314928 | no change | no change | -0.73 | -1.03
TAS2R10 (taste 2 receptor member 10) | SID134317133 | no change | no change | 1.12 | -0.22
ATL1 (atlastin GTPase 1) | SID152148207 | no change | no change | 0.32 | 0.6
CYB5R1 (cytochrome b5 reductase 1) | SID134313467 | no change | no change | 1.07 | 0.18
TIMM13 (translocase of inner mitochondrial membrane 13) | SID135621796 | no change | no change | -2.8 | 1.34
MRPL57 (mitochondrial ribosomal protein L57) | SID134323060 | no change | no change | -0.54 | 1.75
KIAA1755 | SID152154020 | no change | no change | -0.3 | -0.98
TGFBR3 (transforming growth factor beta receptor 3) | SID152150530 | no change | no change | 0.68 | 2.59
STRADA (STE20 related adaptor alpha) | SID152149670 | no change | no change | 0.11 | -0.48
ZNF142 (zinc finger protein 142) | SID152149537 | no change | no change | -0.16 | -0.62
SSR4 (signal sequence receptor subunit 4) | SID134316547 | no change | no change | 0.86 | 0.06
ZNF432 (zinc finger protein 432) | SID134324045 | no change | no change | -0.71 | -0.17
CPNE4 (copine 4) | SID134313413 | no change | no change | -0.86 | -0.54
MED26 (mediator complex subunit 26) | SID135622229 | RV2 (reduced viability) (active) | CA2 (caspase activation) | -3.46 | 6.13
FLT4 (fms related receptor tyrosine kinase 4) | SID152148537 | no change | no change | -0.84 | 1.07
CD7 (CD7 molecule) | SID152151646 | no change | no change | 0.22 | -0.06
MOB2 (MOB kinase activator 2) | SID152147257 | no change | no change | -0.42 | 0.5
AOPEP (aminopeptidase O (putative)) | SID135621089 | no change | no change | 1.12 | -0.54
BOLA3 (bolA family member 3) | SID135625156 | no change | no change | 1.18 | 0.15
LYRM7 (LYR motif containing 7) | SID152152011 | no change | no change | -0.06 | -0.16
LRBA (LPS responsive beige-like anchor protein) | SID152152508 | no change | no change | 0.1 | -0.6
ZNF618 (zinc finger protein 618) | SID135624538 | no change (active) | CA1 (caspase activation) | 1.2 | 5.77
CX3CL1 (C-X3-C motif chemokine ligand 1) | SID152150864 | no change | no change | -0.31 | 0.29
RASGRP1 (RAS guanyl releasing protein 1) | SID135621678 | no change | no change | 0.31 | -0.49
LEF1 (lymphoid enhancer binding factor 1) | SID134319441 | no change | no change | 0.53 | -0.56
GSTO1 (glutathione S-transferase omega 1) | SID134316260 | no change | no change | -1.33 | -0.7
RABAC1 (Rab acceptor 1) | SID134323873 | no change | no change | 0.18 | -0.5
BRCC3 (BRCA1/BRCA2-containing complex subunit 3) | SID152149492 | no change | no change | 0.74 | -0.98
CCDC138 (coiled-coil domain containing 138) | SID135623251 | no change | no change | 0.42 | -0.61
ATAD3A (ATPase family AAA domain containing 3A) | SID135621519 | no change | no change | -0.92 | -0.36
GNG7 (G protein subunit gamma 7) | SID152155621 | no change | no change | -0.85 | -0.61
TFAP2A (transcription factor AP-2 alpha) | SID135621184 | no change | no change | -1 | 0.69
CXCR4 (C-X-C motif chemokine receptor 4) | SID152146885 | no change | no change | 0.38 | 0.38
ALDH1B1 (aldehyde dehydrogenase 1 family member B1) | SID134313137 | no change | no change | 0.52 | 1.06
ZNF16 (zinc finger protein 16) | SID134317026 | no change | no change | -1.02 | 3.93
KCNN4 (potassium calcium-activated channel subfamily N member 4) | SID135620834 | no change | no change | 0.95 | 4.58
CDHR5 (cadherin related family member 5) | SID152152363 | no change | no change | -0.49 | 2.12
TANC1 | SID152148028 | no change | no change | 0.12 | 1.62
CHPF2 (chondroitin polymerizing factor 2) | SID134326339 | no change | no change | 0.5 | 3.89
TMEM97 (transmembrane protein 97) | SID152152087 | no change | no change | 0.08 | -0.58
RIMS1 (regulating synaptic membrane exocytosis 1) | SID152147238 | no change | no change | 0.36 | -0.6
